The entries are a selection whose mix differs from that of the whole data set. At the low end of the ranking, values are background and their order means little.
Each sequence was assayed against T1, ETS2 (UniProt P15036) (assay: DAPPL (digital affinity profiling via proximity ligation, sequencing)). Conditions: 10 mM Tris-HCl pH 7.5, 50 mM NaCl, 1 mM DTT, 4% glycerol, room temperature, 30 min; GST-TFs on glutathione beads, 16-mer random dsDNA library, 0.1% …; high values mean tight binding; double strand, one strand shown; scale: fold enrichment (6-mer frequency, TF over GST control).
T1 sequence: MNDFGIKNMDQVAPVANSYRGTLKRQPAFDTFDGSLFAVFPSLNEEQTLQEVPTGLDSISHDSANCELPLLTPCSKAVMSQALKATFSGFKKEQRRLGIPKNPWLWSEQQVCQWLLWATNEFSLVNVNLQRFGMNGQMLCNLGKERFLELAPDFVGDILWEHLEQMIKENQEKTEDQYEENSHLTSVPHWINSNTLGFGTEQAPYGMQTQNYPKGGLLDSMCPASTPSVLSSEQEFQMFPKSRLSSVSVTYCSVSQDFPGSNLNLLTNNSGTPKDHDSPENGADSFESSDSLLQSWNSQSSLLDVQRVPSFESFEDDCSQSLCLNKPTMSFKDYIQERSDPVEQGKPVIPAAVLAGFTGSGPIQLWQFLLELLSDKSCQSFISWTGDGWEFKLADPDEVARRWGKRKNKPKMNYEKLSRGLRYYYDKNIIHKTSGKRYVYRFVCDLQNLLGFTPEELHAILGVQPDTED

Sequence | binding signal
GACAGC | 0.846
GGGTCA | 0.683
TGGCGG | 0.712
CCAGGT | 0.68
AGGTCA | 0.694
GGAACC | 0.818
GACGCA | 0.583
GGCCGA | 0.661
ACCGTG | 0.23
GAGTTT | 0.655
AGACGG | 0.384
AGACGA | 0.765
GTGGTG | 0.907
CGTGGC | 0.969
CACAGA | 0.863
AGGCGT | 0.485
AAGACC | 0.841
GCCATA | 0.841
CATGTG | 0.836
GTAGAC | 0.763

7 entries from above in a different format.
Sequence,binding signal
GGGTCA,0.683
AGGTCA,0.694
GGAACC,0.818
GGCCGA,0.661
GTGGTG,0.907
CACAGA,0.863
AAGACC,0.841

The list goes on:

Sequence | binding signal
GCGGGA | 0.378
GGGCGC | 0.56
GAAGAC | 0.903
GATAGA | 0.767
GTCATC | 0.826
GACCAG | 0.633
GGAGAA | 0.32
AGTCTG | 0.576
GTCATG | 0.815
TGAGTT | 0.397
TACCAG | 0.845
GGACTA | 0.887
CAGCCG | 0.649
GAGGAT | 0.595
AGCTGG | 0.908
GGGAGA | 0.319
GGTGTG | 0.7
GGCTGT | 0.798
CGGCCG | 0.795

Source: paper PMC7862700
